From the supplement of paper PMC7666118
The other results are listed elsewhere or left out.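 The calls were made as follows: active = dose-dependent thermal stabilisation significant by F-test of dose-response against flat model at 10% FDR; inactive = not significant.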

By UniProt entry, the sequences of proteins in these tests, tags left out. Where a name states a change or a piece, a line headed by the entry shows the natural chain unless it says otherwise.
UniProt Q9NXG2: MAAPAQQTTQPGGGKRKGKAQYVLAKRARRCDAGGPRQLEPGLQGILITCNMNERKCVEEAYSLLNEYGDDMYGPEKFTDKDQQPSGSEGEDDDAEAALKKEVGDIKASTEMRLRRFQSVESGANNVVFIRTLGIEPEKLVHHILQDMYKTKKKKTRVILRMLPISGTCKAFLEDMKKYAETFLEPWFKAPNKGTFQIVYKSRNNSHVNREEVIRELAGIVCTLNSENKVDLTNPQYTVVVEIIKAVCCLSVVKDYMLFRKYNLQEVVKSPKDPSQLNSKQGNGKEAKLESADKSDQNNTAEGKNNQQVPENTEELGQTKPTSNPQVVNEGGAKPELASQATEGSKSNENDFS
UniProt Q96CG3: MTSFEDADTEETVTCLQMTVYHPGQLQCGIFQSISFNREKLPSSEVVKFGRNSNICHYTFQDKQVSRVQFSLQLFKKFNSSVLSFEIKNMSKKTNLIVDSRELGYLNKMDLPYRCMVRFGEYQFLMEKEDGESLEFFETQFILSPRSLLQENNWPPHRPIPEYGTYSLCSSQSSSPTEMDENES
UniProt Q7Z4G4: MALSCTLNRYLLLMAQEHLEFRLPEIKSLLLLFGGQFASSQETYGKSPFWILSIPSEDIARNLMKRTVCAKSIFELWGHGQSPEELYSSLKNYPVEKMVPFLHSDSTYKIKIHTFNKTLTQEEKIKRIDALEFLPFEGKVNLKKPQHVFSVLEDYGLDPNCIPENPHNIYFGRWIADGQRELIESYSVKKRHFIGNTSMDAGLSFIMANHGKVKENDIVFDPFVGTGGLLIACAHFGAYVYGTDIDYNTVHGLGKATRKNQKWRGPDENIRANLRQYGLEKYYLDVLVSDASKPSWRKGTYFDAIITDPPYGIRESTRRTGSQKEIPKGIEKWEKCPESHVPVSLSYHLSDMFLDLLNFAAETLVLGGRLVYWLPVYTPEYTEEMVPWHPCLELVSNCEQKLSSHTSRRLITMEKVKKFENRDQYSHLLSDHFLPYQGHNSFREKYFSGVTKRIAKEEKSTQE
UniProt O14545: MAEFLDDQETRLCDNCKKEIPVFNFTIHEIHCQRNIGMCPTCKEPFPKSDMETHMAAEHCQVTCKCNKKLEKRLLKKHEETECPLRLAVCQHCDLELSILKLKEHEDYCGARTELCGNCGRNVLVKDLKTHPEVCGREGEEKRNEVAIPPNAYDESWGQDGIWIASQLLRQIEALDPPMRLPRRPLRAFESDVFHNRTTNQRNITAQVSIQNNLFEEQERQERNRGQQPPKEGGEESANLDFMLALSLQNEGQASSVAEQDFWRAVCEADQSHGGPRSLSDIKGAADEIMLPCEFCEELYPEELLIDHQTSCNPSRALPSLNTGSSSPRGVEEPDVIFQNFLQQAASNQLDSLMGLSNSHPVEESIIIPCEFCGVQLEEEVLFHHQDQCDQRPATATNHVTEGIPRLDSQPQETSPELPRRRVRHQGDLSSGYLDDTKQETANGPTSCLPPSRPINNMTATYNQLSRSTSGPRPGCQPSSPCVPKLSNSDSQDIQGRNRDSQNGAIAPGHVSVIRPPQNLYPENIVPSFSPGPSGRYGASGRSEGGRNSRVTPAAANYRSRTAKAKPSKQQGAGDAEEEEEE
UniProt Q9Y2L5: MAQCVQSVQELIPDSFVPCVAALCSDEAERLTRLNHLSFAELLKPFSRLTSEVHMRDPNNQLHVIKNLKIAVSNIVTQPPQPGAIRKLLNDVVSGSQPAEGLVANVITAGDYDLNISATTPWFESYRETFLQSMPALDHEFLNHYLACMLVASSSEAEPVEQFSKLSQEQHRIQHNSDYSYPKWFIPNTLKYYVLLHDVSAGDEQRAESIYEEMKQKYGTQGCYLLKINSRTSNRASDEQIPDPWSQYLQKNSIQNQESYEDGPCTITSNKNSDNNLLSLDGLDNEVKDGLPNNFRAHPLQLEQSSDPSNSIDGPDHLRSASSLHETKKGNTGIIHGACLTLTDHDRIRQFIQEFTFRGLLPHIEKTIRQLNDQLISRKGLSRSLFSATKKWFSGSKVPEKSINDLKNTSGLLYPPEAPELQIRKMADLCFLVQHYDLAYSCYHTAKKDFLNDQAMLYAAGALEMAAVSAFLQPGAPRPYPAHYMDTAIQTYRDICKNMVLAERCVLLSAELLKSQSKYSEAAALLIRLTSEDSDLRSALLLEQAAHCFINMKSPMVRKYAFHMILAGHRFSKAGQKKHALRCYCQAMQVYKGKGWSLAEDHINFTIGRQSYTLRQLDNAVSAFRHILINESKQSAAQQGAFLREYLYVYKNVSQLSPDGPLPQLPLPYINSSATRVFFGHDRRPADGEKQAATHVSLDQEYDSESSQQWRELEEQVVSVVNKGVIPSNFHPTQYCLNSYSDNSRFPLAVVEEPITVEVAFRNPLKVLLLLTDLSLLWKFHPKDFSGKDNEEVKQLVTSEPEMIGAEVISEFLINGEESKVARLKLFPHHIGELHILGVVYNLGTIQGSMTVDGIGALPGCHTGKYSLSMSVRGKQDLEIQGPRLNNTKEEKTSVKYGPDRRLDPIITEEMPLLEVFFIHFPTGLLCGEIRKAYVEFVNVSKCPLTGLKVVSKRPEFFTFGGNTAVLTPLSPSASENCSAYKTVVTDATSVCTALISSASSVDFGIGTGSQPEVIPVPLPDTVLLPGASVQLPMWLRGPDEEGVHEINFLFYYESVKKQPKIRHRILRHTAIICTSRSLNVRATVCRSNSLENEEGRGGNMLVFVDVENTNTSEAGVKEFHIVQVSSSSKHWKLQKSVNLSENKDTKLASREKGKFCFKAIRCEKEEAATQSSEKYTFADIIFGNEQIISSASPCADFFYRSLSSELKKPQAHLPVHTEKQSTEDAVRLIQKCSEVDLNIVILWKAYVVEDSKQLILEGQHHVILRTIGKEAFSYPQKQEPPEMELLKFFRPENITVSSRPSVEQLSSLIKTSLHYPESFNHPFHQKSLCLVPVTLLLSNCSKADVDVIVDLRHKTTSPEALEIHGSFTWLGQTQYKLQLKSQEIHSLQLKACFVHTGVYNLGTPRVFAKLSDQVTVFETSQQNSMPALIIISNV
UniProt Q6P9B6: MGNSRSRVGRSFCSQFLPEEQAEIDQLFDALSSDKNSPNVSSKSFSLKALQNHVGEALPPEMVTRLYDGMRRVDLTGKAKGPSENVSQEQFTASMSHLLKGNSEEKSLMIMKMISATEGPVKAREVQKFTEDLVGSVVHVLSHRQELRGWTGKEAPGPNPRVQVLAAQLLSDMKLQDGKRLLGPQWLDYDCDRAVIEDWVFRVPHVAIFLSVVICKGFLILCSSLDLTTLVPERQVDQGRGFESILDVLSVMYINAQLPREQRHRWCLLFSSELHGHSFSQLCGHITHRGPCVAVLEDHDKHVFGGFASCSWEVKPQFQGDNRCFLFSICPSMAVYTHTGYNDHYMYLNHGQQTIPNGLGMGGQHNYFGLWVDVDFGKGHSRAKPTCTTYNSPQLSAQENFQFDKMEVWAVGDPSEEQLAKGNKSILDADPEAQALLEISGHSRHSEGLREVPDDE
UniProt Q16762: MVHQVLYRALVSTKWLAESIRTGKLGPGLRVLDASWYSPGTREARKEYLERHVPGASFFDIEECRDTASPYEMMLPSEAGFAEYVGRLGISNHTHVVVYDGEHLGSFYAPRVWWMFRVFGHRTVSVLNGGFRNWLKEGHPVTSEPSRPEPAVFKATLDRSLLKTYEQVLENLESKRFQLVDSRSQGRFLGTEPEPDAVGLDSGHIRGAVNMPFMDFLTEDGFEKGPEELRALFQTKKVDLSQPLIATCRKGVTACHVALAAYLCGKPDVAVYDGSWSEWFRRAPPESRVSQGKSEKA
UniProt Q9BXI6: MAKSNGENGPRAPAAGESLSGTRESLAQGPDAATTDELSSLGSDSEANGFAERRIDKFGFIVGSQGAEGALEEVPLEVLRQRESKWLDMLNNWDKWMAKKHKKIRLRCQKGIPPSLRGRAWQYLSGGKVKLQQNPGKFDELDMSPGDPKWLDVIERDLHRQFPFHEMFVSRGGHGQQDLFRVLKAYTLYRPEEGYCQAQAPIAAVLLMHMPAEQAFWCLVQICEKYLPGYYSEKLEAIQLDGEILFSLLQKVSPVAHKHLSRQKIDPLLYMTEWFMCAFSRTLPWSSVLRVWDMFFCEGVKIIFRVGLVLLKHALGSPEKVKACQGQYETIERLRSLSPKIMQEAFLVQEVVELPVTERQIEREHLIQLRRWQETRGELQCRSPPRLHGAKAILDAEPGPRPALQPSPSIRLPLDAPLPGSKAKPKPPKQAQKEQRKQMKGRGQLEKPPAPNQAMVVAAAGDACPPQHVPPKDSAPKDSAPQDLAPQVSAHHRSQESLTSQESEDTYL
UniProt Q15814: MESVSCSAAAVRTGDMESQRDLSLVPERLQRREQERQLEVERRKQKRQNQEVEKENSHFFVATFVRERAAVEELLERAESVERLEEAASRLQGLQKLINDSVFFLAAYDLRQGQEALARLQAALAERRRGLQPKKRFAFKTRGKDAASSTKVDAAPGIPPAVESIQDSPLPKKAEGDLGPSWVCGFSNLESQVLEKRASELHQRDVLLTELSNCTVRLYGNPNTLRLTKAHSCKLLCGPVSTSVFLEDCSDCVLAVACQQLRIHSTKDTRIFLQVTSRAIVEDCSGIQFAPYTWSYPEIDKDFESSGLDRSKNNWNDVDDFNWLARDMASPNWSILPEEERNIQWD
UniProt Q8N9M5: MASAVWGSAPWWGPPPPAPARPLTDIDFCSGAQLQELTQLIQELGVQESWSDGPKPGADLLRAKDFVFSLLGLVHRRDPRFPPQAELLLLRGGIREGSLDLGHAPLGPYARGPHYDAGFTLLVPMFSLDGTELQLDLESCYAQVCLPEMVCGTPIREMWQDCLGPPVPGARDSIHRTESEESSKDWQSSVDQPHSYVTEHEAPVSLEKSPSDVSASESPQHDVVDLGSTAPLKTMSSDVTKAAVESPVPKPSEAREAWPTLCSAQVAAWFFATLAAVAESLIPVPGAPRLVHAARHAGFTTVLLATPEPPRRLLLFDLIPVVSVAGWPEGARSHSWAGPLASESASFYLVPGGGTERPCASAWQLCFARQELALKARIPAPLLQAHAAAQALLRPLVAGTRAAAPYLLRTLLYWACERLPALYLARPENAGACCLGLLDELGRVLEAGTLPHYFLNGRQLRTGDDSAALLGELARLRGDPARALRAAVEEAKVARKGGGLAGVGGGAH
UniProt P57075: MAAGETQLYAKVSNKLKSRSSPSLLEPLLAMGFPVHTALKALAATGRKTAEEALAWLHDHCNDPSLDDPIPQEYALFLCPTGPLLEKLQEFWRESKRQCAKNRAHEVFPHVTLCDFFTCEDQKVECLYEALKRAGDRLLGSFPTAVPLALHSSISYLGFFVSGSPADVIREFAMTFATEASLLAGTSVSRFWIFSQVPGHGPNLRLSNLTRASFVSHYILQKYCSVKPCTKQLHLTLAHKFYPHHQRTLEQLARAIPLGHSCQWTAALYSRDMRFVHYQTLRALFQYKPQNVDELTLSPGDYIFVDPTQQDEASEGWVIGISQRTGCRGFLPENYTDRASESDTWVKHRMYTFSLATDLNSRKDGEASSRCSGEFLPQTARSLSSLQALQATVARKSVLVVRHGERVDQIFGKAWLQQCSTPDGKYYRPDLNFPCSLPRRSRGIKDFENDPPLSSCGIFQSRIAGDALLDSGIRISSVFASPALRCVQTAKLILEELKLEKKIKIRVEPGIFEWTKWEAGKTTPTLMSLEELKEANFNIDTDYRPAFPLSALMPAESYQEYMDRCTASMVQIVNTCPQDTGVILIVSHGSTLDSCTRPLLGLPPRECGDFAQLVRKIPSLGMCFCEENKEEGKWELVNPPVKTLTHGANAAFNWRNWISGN
UniProt Q96Q11: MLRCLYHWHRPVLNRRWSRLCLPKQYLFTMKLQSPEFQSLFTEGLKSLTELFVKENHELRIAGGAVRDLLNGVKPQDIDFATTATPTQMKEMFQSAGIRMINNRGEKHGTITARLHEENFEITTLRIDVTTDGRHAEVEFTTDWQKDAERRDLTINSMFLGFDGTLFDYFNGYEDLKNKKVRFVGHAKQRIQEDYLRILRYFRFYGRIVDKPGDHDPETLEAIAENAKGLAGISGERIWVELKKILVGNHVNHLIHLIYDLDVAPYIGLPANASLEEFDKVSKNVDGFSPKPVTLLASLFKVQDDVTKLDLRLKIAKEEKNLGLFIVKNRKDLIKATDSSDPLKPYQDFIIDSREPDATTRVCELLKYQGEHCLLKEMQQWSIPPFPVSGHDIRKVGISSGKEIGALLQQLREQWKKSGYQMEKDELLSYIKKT
UniProt Q9NZR1: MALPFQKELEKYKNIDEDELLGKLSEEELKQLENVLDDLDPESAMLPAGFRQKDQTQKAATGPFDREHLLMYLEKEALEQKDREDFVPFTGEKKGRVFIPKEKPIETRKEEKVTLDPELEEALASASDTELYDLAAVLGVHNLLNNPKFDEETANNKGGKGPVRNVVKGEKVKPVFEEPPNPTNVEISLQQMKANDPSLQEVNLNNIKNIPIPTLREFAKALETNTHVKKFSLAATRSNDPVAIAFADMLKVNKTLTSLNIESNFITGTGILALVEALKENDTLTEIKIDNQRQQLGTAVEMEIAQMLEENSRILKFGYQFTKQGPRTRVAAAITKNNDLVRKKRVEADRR

Compound: Nc1nc2c(ncn2[C@@H]2O[C@H](COP(=O)(O)OP(=O)(O)OP(=O)(O)O)[C@@H](O)[C@H]2O)c(=O)[nH]1
Test: dose-dependent thermal stabilisation call (2D-TPP, DLPTP, 10% FDR) (binary (1 = stabilised)); higher = stabilised by the compound
Conditions: system: Jurkat gel-filtered lysate; concentration range 1-500 µM

| Target | dose-dependent thermal stabilisation call |
| --- | --- |
| TTN (UniProt Q8WZ42) | inactive: 0 |
| THUMPD1 (UniProt Q9NXG2) | inactive: 0 |
| THAP4 (UniProt Q8WY91) | inactive: 0 |
| TRMT2A (UniProt Q8IZ69) | inactive: 0 |
| TIFA (UniProt Q96CG3) | inactive: 0 |
| TXNRD3 (UniProt Q86VQ6) | inactive: 0 |
| TRAPPC2 (UniProt P0DI81) | active: 1 |
| TRMT11 (UniProt Q7Z4G4) | inactive: 0 |
| TECPR2 (UniProt O15040) | inactive: 0 |
| TOP1 (UniProt P11387) | active: 1 |
| TRAFD1 (UniProt O14545) | inactive: 0 |
| TXNDC17 (UniProt Q9BRA2) | inactive: 0 |
| TAOK3 (UniProt Q9H2K8) | active: 1 |
| TRAPPC8 (UniProt Q9Y2L5) | inactive: 0 |
| TBK1 (UniProt Q9UHD2) | active: 1 |
| TLDC1 (UniProt Q6P9B6) | inactive: 0 |
| TDP2 (UniProt O95551) | inactive: 0 |
| TST (UniProt Q16762) | inactive: 0 |
| U2AF2 (UniProt P26368) | active: 1 |
| TBC1D10A (UniProt Q9BXI6) | inactive: 0 |
| TBCC (UniProt Q15814) | inactive: 0 |
| UBA6 | inactive: 0 |
| TMEM102 (UniProt Q8N9M5) | active: 1 |
| UBASH3A (UniProt P57075) | inactive: 0 |
| TRNT1 (UniProt Q96Q11) | active: 1 |
| TMOD2 (UniProt Q9NZR1) | inactive: 0 |
| TNRC18 (UniProt O15417) | inactive: 0 |
| TCEAL1 (UniProt Q15170) | inactive: 0 |

Rewritten field by field: part of the list above.
TRNT1 (UniProt Q96Q11)
  dose-dependent thermal stabilisation call: active: 1
TMOD2 (UniProt Q9NZR1)
  dose-dependent thermal stabilisation call: inactive: 0
